Data on 2 substances can be found in patent US20030114362A1 (Novaspin Biotech GmbH, priority 2001, published 2003).

The nature of the data set: general procedure: Fmoc solid-phase peptide synthesis; Tritylchloropolystyrene (TCP) resin, PepChem Goldammer & Clausen; HATU/HOAt/2,4,6-collidine. Conditions: whole synthesis.

The substance cyclo[-Phe-DTrp-Lys-Z1-] returned an isolated yield of 36%.

With cyclo[-Phe-Trp-Lys-Z1-], the isolated yield worked out at 33%.
